These are yes or no findings as the source states them, for the method shown. For part of these data: In cells and extracts the contact can be indirect. Some results given as binding are weak or reduced against the parent protein; the word gives no strength. Tags and fused reporters may be left off the sequences shown. Blank lines part the entries; values can stand above or below the binder they belong to.
Assays:
[1] = target: T1, GAL4 DNA-binding domain-fused Drosophila melanogaster Piwi (pDBD-dPiwi) (Drosophila melanogaster), Q9VKM1; test: two-hybrid; insect two-hybrid (I2H) in BmN4 cells: GAL4 DBD bait, p65 AD prey, 4xUAS-TATA-Luc reporter, luciferase at 72 h post-transfection, relative to the pUC18 control prey; also in BmN4-SID1 cells 72 h after dsRNA against HP1a, HP1b, Ago3, Siwi, putative piRNA-related genes or GFP (control); conditions: remark: other sources report otherwise
T1 chain: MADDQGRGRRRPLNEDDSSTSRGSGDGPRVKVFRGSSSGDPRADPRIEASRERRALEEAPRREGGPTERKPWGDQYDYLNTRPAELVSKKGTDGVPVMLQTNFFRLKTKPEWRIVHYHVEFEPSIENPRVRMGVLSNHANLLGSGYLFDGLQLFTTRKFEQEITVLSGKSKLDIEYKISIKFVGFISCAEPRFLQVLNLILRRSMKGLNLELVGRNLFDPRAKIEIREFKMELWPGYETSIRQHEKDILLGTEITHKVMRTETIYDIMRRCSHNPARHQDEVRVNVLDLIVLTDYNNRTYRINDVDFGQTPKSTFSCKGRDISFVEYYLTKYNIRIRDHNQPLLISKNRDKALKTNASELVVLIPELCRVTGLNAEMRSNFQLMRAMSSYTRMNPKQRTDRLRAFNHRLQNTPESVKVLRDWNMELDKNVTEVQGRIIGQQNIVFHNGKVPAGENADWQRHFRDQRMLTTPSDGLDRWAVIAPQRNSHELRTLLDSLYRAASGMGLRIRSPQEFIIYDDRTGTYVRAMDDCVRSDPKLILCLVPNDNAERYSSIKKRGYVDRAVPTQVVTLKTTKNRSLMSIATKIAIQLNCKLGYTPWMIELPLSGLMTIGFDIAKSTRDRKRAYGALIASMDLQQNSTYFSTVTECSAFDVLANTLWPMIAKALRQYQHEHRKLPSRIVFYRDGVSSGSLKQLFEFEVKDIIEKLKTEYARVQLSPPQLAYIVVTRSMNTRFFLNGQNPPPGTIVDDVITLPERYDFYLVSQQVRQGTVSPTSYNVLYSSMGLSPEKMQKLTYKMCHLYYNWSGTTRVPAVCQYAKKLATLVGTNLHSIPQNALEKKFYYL

[2] = target: T2, Drosophila melanogaster Piwi, BiFC fusion (Drosophila melanogaster), Q9VKM1; test: split reporter; BiFC in BmN4 cells; 100 ng of each expression plasmid (fusions in pnVW or pcCW) co-transfected; Venus fluorescence by microscopy; conditions: remark: other sources report otherwise
T2 chain: T1 chain

[3] = target: T3, Bombyx mori Siwi fused to the split Venus fragment of pnVW (pNV-Siwi) (Bombyx mori) (UniProt A8D8P8); test: split reporter; BiFC in BmN4-SID1 cells 72 h after introduction of dsHP1a, dsHP1b or dsLuc (control); DsRed-VLG as marker of nuage
T3 sequence: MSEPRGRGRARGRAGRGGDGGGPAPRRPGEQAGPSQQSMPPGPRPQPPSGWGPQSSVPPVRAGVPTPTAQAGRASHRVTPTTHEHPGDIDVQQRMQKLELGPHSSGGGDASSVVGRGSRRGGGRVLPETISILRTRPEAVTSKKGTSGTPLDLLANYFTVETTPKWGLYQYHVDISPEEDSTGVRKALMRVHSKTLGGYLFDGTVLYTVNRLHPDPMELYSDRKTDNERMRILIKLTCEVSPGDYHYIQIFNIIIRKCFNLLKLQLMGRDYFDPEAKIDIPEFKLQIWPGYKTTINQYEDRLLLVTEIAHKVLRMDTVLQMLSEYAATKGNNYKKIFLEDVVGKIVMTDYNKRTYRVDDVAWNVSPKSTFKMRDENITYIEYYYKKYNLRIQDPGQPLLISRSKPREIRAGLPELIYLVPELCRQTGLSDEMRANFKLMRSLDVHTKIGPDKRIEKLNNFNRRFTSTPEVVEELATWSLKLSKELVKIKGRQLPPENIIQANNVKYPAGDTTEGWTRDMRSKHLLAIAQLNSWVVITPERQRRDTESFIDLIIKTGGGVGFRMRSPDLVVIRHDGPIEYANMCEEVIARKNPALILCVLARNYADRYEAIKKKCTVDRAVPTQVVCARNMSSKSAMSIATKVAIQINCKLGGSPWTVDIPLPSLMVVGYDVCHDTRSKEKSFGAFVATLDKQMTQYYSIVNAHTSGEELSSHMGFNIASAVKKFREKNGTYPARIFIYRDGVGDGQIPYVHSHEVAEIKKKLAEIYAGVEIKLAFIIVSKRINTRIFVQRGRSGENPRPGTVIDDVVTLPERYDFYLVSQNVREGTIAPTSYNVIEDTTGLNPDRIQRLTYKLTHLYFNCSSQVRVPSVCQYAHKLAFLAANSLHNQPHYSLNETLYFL

binding [1]: binds
B1: p65 activation domain-fused Drosophila melanogaster HP1a, P05205 1-206 (protein)
chain: MGKKIDNPESSAKVSDAEEEEEEYAVEKIIDRRVRKGKVEYYLKWKGYPETENTWEPENNLDCQDLIQQYEASRKDEEKSAASKKDRPSSSAKAKETQGRASSSTSTASKRKSEEPTAPSGNKSKRTTDAEQDTIPVSGSTGFDRGLEAEKILGASDNNGRLTFLIQFKGVDQAEMVPSSVANEKIPRMVIHFYEERLSWYSDNED

binding [2]: binds
B2: Drosophila melanogaster HP1a, BiFC fusion, P05205 1-206 (protein)
chain: B1 chain

binding [3]: binds
B3: Bombyx mori Ago3 fused to the split Cerulean fragment of pcCW (pCC-Ago3) (protein, UniProt A9ZSZ2 1-926)
chain: MADPGKGRGRSLALLQALKKSQMMDSPSQSESQSPESTPEQSTAPSTIASATPSTSGVSIGGRGRAAALMLAKMQQKPGSTTPAIFVPPSSTSAPTAGTGRGFKLLQNLQASQKASSQIASSQVTSSAQSDIKDLTEKMSETSVSAQASSVAKNKYFREVKDTPPVVKKGETGVPIEVTCNYIYLNFKENIVFEYEVKFEPDQDYKHLRFKLLNEHIEHFKEKTFDGTTLYVPHELPDAVRNLVSTNPYDQSKVNVSIIFRRTRRLSEMIHIYNVMFKCIMKDLKLIRFGRQHYNEHAAIQIPQHKLEVWPGYVTAVDEYEGGLMLTLDSTHRVLRTQTVLSLIKEVVQTEGANWKRKMTDILIGASVMTTYNKKLFRVDTIDDKMSPRSTFEKTEKGETVQISFIDYYKKNYGIEIMDWDQPLLISRDTKRMPGSDTPTDFMICLIPELCQLTGLTDDQRSNFRLMKDVATYTRITPNQRHAAFKKYIESVMKNETAKSRLAGWGLSIAPETVNLTARTLPPETLYFGDNVRVPGKPNAEWNSEVTKHSVMQAVDIMRWVLLFTQRDKQVAMDFLSTLKRNCRPMGIMVSDAELVPLANDRTDTYVLALKKCITSSVQLVVAICSTKRDDRYAAIKKVCCADNPVPSQVINARTLMNTNKIRSITQKILLQLNCKLGGTLWSISIPFKSAMIVGIDSYHDPSRRNRSVCSFVASYNQSMTLWYSKVIFQEKGQEIVDGLKCCLVDALTHYLRSNGQLPDRIIIYRDGVGDGQLKLLQQYEIPQMKICFTILGSNYQPTLTYVVVQKRINTRIFLKSRDGYDNPNPGTVVDHCITRRDWYDFLIVSQKVTQGTVTPTHYVVVYDDSGITPDQCQRLTYKMCHLYYNWPGTVRVPAPCQYAHKLSYLVGQCVHAQPSDVLVDKLFFL

From PMC3956929
